# The list shows a part of the results. Shown are side measurements of this screen, not its main read-out; they come without a call. Most of these compounds were active or inconclusive in the main read-out, so they are no random draw. Potencies come from curve fits of mixed quality, noted in brackets.
# Experiment: qHTS Assay for Lipid Storage Modulators in Drosophila S3 Cells;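 on cell number change: cells counted by Cell Tracker Red CMTPX staining in the red channel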
# Settings: BODIPY lipid droplet fluorescence, 18-24 h; for cell number change: measured here: cell count max response, cells fed with added oleic acid
# In short: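 Drosophila S3 cells got compounds at several concentrations plus oleic acid (400 uM solution). Laser-scanning cytometry with 488 nm excitation read lipid droplets at 500-530 nm and cells at 575-640 nm. Percent activity was relative to 20 uM Triacsin C.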
# [1] = measured here: cell number channel AC50, cells fed with added oleic acid
# [2] = measured here: lipid fluorescence (Fed channel) AC50, cells fed with added oleic acid
Structure (SMILES),cell number change [%],AC50 [1],AC50 [2]
c1ccc(-c2nnc(CSc3ccc4c(c3)OCCO4)o2)cc1,21.9,"3660 nM [rising, single point]","3260 nM [rising, single point]"
Cc1ccc(/C=N/n2c(-c3cccnc3)n[nH]c2=S)o1,-39.4,"1840 nM [falling, partial curve, poor fit]",–
COc1ccc(CC(=O)n2nc(-c3cccnc3)nc2N)cc1,18.1,–,"2060 nM [rising, single point]"
CN1CCN(S(=O)(=O)CC2(C)C3CCC2(C)C(=O)C3Br)CC1 (centres undefined),-44.6,"103 nM [falling, full curve, poor fit]",–
CC(/C=C(\NC(=O)c1ccccc1)C(=O)N=Nc1c(O)[nH]c2ccc(C)cc12)=C\c1ccccc1,36.6,"206 nM [rising, full curve]","1640 nM [rising, full curve]"
Cc1cc(NC(=O)CSc2nc(=O)n(CCN(C)C)c3c2CCCC3)no1,-2.88,–,–
COc1cccc(C(O)c2nc3ccccc3n2C(C)C)c1 (centres undefined),14.5,"1160 nM [falling, partial curve]","6510 nM [falling, single point]"
C=CCn1c(C)cc(C(=O)CSc2nnc(-c3cccc(S(=O)(=O)N(CC)CC)c3)o2)c1C,–,–,"820 nM [rising, single point]"
COc1ccc(-n2cnnc2SCC(=O)c2ccc(S(=O)(=O)N3CCOCC3)cc2)cc1,–,–,"580 nM [rising, full curve, poor fit]"
O=[N+]([O-])c1cc(/C=N/n2c(-c3cccnc3)n[nH]c2=S)ccc1Cl,-3.5,–,"29100 nM [falling, single point]"
Cc1cc2cc(CNC(=O)c3cccs3)ccc2n1C,-52.6,"11600 nM [falling, partial curve, poor fit]","14600 nM [falling, partial curve, poor fit]"
Cc1ccc(C(=O)N/C(=C/c2ccco2)C(=O)OCN2C(=O)c3ccccc3C2=O)cc1,0.422,–,"1300 nM [rising, full curve, poor fit]"
NC(=O)CC(NC(=O)c1ccccc1)c1ccc(N2CCC(Cc3ccccc3)CC2)c([N+](=O)[O-])c1 (centres undefined),-41.6,"25900 nM [falling, single point]",–
CC(C)c1nnc(NC(=O)C2CCN(C(=O)c3ccco3)CC2)s1,20.8,–,–
COc1cc(C2/C(=C(\O)c3ccc4c(c3)CC(C)O4)C(=O)C(=O)N2CCN2CCOCC2)cc(OC)c1OC (centres undefined),-14.2,–,–

# Some of these compounds in order of number of heavy atoms, smallest number first.
Structure (SMILES),cell number change [%],AC50 [1],AC50 [2]
CN1CCN(S(=O)(=O)CC2(C)C3CCC2(C)C(=O)C3Br)CC1 (centres undefined),-44.6,"103 nM [falling, full curve, poor fit]",–
c1ccc(-c2nnc(CSc3ccc4c(c3)OCCO4)o2)cc1,21.9,"3660 nM [rising, single point]","3260 nM [rising, single point]"
COc1ccc(-n2cnnc2SCC(=O)c2ccc(S(=O)(=O)N3CCOCC3)cc2)cc1,–,–,"580 nM [rising, full curve, poor fit]"
CC(/C=C(\NC(=O)c1ccccc1)C(=O)N=Nc1c(O)[nH]c2ccc(C)cc12)=C\c1ccccc1,36.6,"206 nM [rising, full curve]","1640 nM [rising, full curve]"

# — PubChem BioAssay AID2685 (National Center for Advancing Translational Sciences (NCATS), 2010)
